# Values from PubChem BioAssay AID1159579 (Peter MacCallum Cancer Centre, 2015)
# Assay: 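Follow-up screen seeking modulators of motility in lymphatic endothelial cells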 (follow-up of hits)
# Cells: human dermal lymphatic endothelial cells
# Reagents: single siRNA against human genes, 25 nM
# Measured: 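High content images of wound closure area and cell nuclei counts, each the average of two wells, expressed against mock transfection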
# Direction: migration relative to mock: higher = more migration into the scratch; mean nuclei count: higher = more cells remaining
# Rule for the call: 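Called active when the migration ratio is 0.6 or lower (impaired) or 1.3 or higher (accelerated), but inactive whenever the mean nuclei count falls under 3300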
# Meaning of the calls: active = migration changed (impaired or accelerated); inactive = no migration change, or too few cells
# Shown is an unselected part of about 2,000 reagents. In the full data, 549 (27%) are marked active. 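Some migration ratios are negative; siRNAs with too few cells are inactive whatever their migration ratio.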 Unmarked entries are inactive. The numbers tell different reagents against one gene apart. Further read-outs or replicates are left out here. Not stated in the record: the time to read-out.
target gene,reagent,migration relative to mock,mean nuclei count
HMX1,1,-0.08,2967
HMX1,2,0.52 (active),5592
HMX1,3,1.07,7360
HMX1,4,0.7,6184
STK38,1,0.38 (active),5453
STK38,2,0.27 (active),4136
STK38,3,0.7,6010
STK38,4,0.78,4845
FSIP2,1,0.92,5698
FSIP2,2,0.97,6251
FSIP2,3,1.09,5920
FSIP2,4,0.86,5794
MIEF1,1,0.36 (active),5055
MIEF1,2,0.6 (active),5698
MIEF1,3,0.64,5134
MIEF1,4,1.04,5142
AXL,1,0.88,6476
AXL,2,0.4 (active),5740
AXL,3,0.94,8299
AXL,4,0.52 (active),5906
DPYSL2,1,-0.32,2753
DPYSL2,2,0.71,5105
DPYSL2,3,0.62,4280
DPYSL2,4,0.94,3975
CYSRT1,1,0.83,6222
CYSRT1,2,0.94,5410
CYSRT1,3,1.04,5936
CYSRT1,4,0.92,5533
TRIM51G,1,0.74,6034
TRIM51G,2,0.84,5494
TRIM51G,3,0.37 (active),4174
TRIM51G,4,0.26,3172
SMURF2,1,0.55 (active),5172
SMURF2,2,0.45 (active),4914
SMURF2,3,0.76,6070
SMURF2,4,0.98,5900
MTERF3,1,1.09,6182
MTERF3,2,0.9,5223
MTERF3,3,0.74,4124
MTERF3,4,0.48 (active),4290

Reagents listed so far with an active call:
target gene,reagent,migration relative to mock,mean nuclei count
HMX1,2,0.52 (active),5592
STK38,1,0.38 (active),5453
STK38,2,0.27 (active),4136
MIEF1,1,0.36 (active),5055
MIEF1,2,0.6 (active),5698
AXL,2,0.4 (active),5740
AXL,4,0.52 (active),5906
TRIM51G,3,0.37 (active),4174
SMURF2,1,0.55 (active),5172
SMURF2,2,0.45 (active),4914
MTERF3,4,0.48 (active),4290

The listing continues:
target gene,reagent,migration relative to mock,mean nuclei count
UBE2O,1,-0.04 (active),4560
UBE2O,2,1.02,5902
UBE2O,3,0.9,7334
UBE2O,4,0.52 (active),3889
SUMO2,1,1.08,6572
SUMO2,2,1.16,5994
SUMO2,3,1.06,6812
SUMO2,4,0.82,4482
NTM,1,1.04,6702
NTM,2,0.95,5314
NTM,3,0.43 (active),6752
NTM,4,0.48,3139
DOK4,1,0.88,5730
DOK4,2,0.9,6088
DOK4,3,1,5888
DOK4,4,0.78,4374
PDGFRB,1,0.46 (active),5246
PDGFRB,2,0.24 (active),4655
PDGFRB,3,0.6 (active),4624
PDGFRB,4,1.06,6316
BDH2,1,-0.59 (active),3490
BDH2,2,0.78,5523
BDH2,3,0.66,5268
BDH2,4,0.34 (active),3318
GPR84,1,0.6 (active),6432
GPR84,2,0.91,4225
GPR84,3,0.34 (active),5147
GPR84,4,-0.84 (active),3538
